Laboratory results published in PubChem BioAssay AID2685 (National Center for Advancing Translational Sciences (NCATS), 2010).
The other results are listed elsewhere or left out. Shown are side measurements of this screen, not its main read-out; they come without a call. Compounds called inactive in the main read-out are mostly missing here. The note in brackets gives the kind of curve behind each potency; many fits are weak.

Assay: qHTS Assay for Lipid Storage Modulators in Drosophila S3 Cells;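 as to cell number change: cells counted by Cell Tracker Red CMTPX staining in the red channel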
Settings: BODIPY lipid droplet fluorescence, 18-24 h; for cell number change: measured here: cell count max response, cells fed with added oleic acid
In short: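 Laser-scanning cytometry quantifies lipid droplet accumulation (500–530 nm total intensity; droplet/cell object ratio) in oleic acid-fed (400 uM added) Drosophila S3 cells treated with a concentration series. 20 uM Triacsin C defined 100% inhibition.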

[1] = measured here: cell number channel AC50, cells fed with added oleic acid
[2] = measured here: lipid fluorescence (Fed channel) AC50, cells fed with added oleic acid

| SMILES | cell number change | AC50 [1] | AC50 [2] |
| --- | --- | --- | --- |
| NCCCNC(=O)c1cc2ccccc2[nH]1 | 25.5% | 1.46 µM [rising, full curve, poor fit] |  |
| CCOC(=O)N1CCN(S(=O)(=O)c2ccc3c(c2)oc(=O)n3C)CC1 |  |  | 6.51 µM [falling, single point] |
| CC(C)NC(=S)Nc1ccc(Oc2ccccc2)cc1 | -21.1% |  | 0.00461 µM [falling, full curve, poor fit] |
| COCC1CCN(C(=O)C2CCC(=O)N(CC3CCCCC3)C2)CC1 (configuration not stated) | 13.3% |  | 4.61 µM [falling, single point] |
| CCCNC(=O)COC(=O)c1n[nH]c2ccccc12 | 42.5% | 29.1 µM [rising, single point] | 23.1 µM [rising, single point] |
| Cc1ccc2nc(N3CCC(C(=O)NC4CCCCC4)CC3)sc2c1 | 5.01% |  |  |
| CCC1CCCCN1CCCNC(=O)c1cn(CC)c2ccc(S(=O)(=O)N3CCc4ccccc4C3)cc2c1=O (configuration not stated) |  |  | 0.82 µM [rising, full curve, poor fit] |
| Cc1ccccc1NC(=O)c1cnn(-c2ccccc2)c1NC(=O)c1ccco1 | -0.325% |  | 0.184 µM [rising, full curve, poor fit] |
| CC1=NN(c2ccccc2)C(=O)C1/C=C1/NC(=S)NC1=O (configuration not stated) | -26% |  | 5.17 µM [falling, full curve, poor fit] |
| COC(=O)CN1C(=O)N/C(=C/c2cc(Cl)c(OC)c(OC)c2)C1=O | 2.15% |  | 6.51 µM [falling, single point] |
| COC(=O)c1cc2ccsc2n1Cc1nc(-c2ccc(Cl)cc2)oc1C | 10% |  |  |
| Cc1[nH]c2ccc(C(=O)OCC(=O)Nc3cccc(S(N)(=O)=O)c3)cc2c1C | -0.775% |  | 0.651 µM [falling, full curve] |
| Cc1ccccc1-c1nnc(SCc2ccccc2F)o1 | 10.2% |  | 9.2 µM [rising, single point] |
| CCN(CC)CCn1c(NS(=O)(=O)c2ccc(C)cc2)nc2ccccc21 | -6.53% |  |  |
| CCOC(=O)C1=C(C)N=C2c3ccccc3C(=O)C2C1c1ccc(Cl)cc1 (configuration not stated) | -61.6% | 20.6 µM [falling, partial curve] | 20.6 µM [falling, partial curve] |
| O=C(NCCCN1CCc2ccccc2C1)Nc1ccc(Cl)cc1 | -4.04% |  | 5.8 µM [falling, single point] |
| Cc1cnc(C(=O)Nc2ccc(S(=O)(=O)NCC(C)C)cc2)cn1 | -18.3% |  | 0.651 µM [falling, full curve] |
| Cc1ccc(C(=O)OCC(=O)c2cc(C)n(CC3CCCO3)c2C)cc1 (configuration not stated) | 4.96% | 6.51 µM [falling, single point] | 6.51 µM [falling, single point] |
| CC(C)n1nc(C(=O)Nc2ccc3c(c2)OCO3)c2ccccc2c1=O | -4.82% |  | 0.103 µM [rising, full curve, poor fit] |
| Cc1[nH]c2ccccc2c1Cc1n[nH]c(=S)o1 | -12.2% |  | 0.731 µM [rising, single point] |
| CCCCCn1c(N2CCN(Cc3ccccc3)CC2)nc2c1c(=O)[nH]c(=O)n2C |  |  | 0.651 µM [rising, single point] |
| Cc1ccc(CSc2ccc(S(=O)(=O)N3CCCC3)cn2)cc1 | -0.519% |  |  |
| COc1ccc(S(=O)(=O)NC(C)C(=O)NCc2ccncc2)cc1C (configuration not stated) | 18.5% |  | 0.092 µM [rising, full curve, poor fit] |
| Cc1ccc2c(c1)c1c(n2CC(O)CN2C(=O)CNC2=O)C(=O)CCC1 (configuration not stated) | -7.8% |  |  |
| COc1ccc(C(=O)Cn2c(Br)nc3c2c(=O)n(C)c(=O)n3C)cc1OC | -16.1% | 0.58 µM [falling, full curve] |  |
| COc1cccc([C@@H]2CC=C(C(=O)O)[C@H](c3ccc(F)cc3)N2S(=O)(=O)c2ccc(C)cc2)c1 | 25.3% |  | 18.4 µM [rising, single point] |
| Cn1c(SCC(=O)N2CCN(c3ccccc3)CC2)nnc1-c1c[nH]c2ccccc12 | 30% | 3.66 µM [rising, single point] | 25.9 µM [rising, single point] |
| COc1ccc(S(=O)(=O)N2CCOCC2)cc1C(=O)N(C)CCOc1ccc(Cl)cc1 | 6.76% |  | 0.651 µM [rising, single point] |
| O=C(c1noc2c1CCCC2)N1CCN(Cc2ccccc2)CC1 | 17.1% |  | 20.6 µM [rising, single point] |
| CCOC(=O)/C(C#N)=C\c1cccnc1 | -19.1% | 0.092 µM [rising, partial curve, poor fit] | 6.51 µM [rising, single point] |

Retrieved by structure from the entries so far (two):

| SMILES | cell number change | AC50 [1] | AC50 [2] |
| --- | --- | --- | --- |
| O=C(NCCCN1CCc2ccccc2C1)Nc1ccc(Cl)cc1 | -4.04% |  | 5.8 µM [falling, single point] |
| Cc1[nH]c2ccccc2c1Cc1n[nH]c(=S)o1 | -12.2% |  | 0.731 µM [rising, single point] |
